Data taken from patent US11980681B2, “Material for demineralizing dentin collagen fibril, preparation method and application thereof” (THE FOURTH MILITARY MEDICAL UNIVERSITY OF CHINESE PEOPLE'S …, priority 2019, dated 2024).

Assay: Microtensile bond strength of dentin bonded after demineralizing agent treatment
Conditions: versus phosphoric acid-wet bonding control, 32% PA 15 s, 0.1M EDTA 60 s, 25 mg/ml GCE 30 s, n=10 teeth

Compound	bonding strength (microtensile), dry bonding mode
O=C(O)CN(CCN(CC(=O)O)CC(=O)O)CC(=O)O [EDTA, ethylenediaminetetraacetic acid]	significant decrease in bonding strength
O=P(O)(O)O [phosphoric acid]	significant decrease in bonding strength
